In article PMC9691347, “C9orf72 regulates the unfolded protein response and stress granule formation by interacting with eIF2α” (Theranostics, 2022):
No constants are given. Whether binding was seen depends on the method and setting. In cells and extracts the contact can be indirect. These calls come from enrichment with a bait or labelling near it, and not all partners need be listed. Tags and fused reporters may be left off the sequences shown.

Protein sequences, listed by entry. Tags and fused reporters are not part of them.
UniProt P23528: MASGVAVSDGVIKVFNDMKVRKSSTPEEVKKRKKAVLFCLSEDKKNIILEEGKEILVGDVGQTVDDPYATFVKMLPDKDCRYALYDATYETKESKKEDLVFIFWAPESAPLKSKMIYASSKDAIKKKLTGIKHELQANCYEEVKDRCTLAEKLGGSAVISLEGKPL

Target: T1, Flag-C9orf72 (long isoform) (human) (UniProt Q96LT7)
T1 sequence: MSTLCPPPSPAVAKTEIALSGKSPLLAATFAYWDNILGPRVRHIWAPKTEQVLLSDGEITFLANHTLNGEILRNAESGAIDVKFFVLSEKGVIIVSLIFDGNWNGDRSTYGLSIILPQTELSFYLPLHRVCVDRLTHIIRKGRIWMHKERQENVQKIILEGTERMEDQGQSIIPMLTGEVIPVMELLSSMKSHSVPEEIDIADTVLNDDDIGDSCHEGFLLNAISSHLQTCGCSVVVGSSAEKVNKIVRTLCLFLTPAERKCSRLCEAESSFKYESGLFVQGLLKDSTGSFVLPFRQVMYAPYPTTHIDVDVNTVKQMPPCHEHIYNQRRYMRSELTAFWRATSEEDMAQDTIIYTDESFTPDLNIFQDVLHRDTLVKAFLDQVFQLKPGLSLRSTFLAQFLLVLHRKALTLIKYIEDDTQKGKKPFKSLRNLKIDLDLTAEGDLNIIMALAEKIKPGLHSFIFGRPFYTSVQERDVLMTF
Test: affinity purification with mass spectrometry; lysates of HEK-293T cells transfected with Flag-tag or Flag-C9orf72 (long version); IP with a Flag antibody pre-coupled to Protein A/G magnetic beads, then MS; Flag-tag sample as control

- binding: binds
Substance: CFL1 (from UniProt P23528 1-166)
